Experimental data from publication doi:10.1101/2024.09.30.615192.
No constants are given. Whether binding was seen depends on the method and setting. Binding seen in cells or lysates may run through a third protein. A yes stands for co-enrichment or nearness to the bait. Other partners may have been found.

How the values were obtained:
Test in all cases: affinity purification with mass spectrometry
SLC9A2 (human) = target: T1, SLC9A2 (human) (UniProt Q9UBY0)
T1 sequence: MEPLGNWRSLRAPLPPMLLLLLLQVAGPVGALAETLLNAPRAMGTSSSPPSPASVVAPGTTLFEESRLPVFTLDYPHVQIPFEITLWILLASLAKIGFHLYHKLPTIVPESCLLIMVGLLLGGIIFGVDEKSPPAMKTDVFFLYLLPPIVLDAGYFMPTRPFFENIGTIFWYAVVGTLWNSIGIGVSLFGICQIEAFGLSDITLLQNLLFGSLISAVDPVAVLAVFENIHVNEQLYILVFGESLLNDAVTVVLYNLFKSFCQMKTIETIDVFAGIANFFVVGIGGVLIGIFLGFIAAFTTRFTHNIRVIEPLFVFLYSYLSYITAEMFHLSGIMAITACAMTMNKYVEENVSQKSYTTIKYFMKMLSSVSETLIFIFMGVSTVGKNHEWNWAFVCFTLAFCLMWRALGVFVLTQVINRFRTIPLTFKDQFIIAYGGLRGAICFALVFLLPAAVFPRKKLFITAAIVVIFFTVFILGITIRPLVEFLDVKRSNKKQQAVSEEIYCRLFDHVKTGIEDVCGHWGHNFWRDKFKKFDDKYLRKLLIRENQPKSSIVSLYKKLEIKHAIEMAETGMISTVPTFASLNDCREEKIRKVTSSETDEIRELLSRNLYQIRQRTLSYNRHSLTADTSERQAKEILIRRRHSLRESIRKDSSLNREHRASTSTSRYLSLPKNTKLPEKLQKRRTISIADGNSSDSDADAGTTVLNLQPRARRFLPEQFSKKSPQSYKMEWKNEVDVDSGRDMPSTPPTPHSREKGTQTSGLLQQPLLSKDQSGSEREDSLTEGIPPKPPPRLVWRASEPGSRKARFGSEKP

SLC9A5 (human) = target: T2, SLC9A5 (human) (UniProt Q14940)
T2 sequence: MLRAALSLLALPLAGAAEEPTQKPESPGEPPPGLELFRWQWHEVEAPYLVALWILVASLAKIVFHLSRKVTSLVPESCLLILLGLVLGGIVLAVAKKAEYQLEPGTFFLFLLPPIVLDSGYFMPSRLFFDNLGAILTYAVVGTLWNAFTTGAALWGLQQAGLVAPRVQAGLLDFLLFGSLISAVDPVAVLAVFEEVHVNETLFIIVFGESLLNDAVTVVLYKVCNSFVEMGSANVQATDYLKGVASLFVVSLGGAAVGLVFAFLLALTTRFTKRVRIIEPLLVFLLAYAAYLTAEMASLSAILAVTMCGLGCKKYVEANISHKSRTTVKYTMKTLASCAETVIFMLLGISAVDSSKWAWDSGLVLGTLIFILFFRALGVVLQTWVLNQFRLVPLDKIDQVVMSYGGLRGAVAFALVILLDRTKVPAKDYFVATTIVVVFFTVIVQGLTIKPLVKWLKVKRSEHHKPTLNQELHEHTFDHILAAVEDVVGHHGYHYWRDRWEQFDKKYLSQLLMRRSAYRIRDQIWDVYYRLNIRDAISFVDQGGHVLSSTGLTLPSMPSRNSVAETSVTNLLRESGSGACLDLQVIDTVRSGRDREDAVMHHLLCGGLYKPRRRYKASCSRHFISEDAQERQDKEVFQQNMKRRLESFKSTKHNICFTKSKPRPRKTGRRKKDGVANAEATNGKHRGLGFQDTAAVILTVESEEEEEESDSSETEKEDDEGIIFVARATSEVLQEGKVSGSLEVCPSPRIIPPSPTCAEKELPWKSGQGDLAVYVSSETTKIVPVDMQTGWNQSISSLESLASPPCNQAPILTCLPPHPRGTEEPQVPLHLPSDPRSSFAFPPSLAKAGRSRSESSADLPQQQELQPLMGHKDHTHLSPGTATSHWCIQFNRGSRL

SLC9A6 (human) = target: T3, SLC9A6 (human) (UniProt Q92581)
T3 sequence: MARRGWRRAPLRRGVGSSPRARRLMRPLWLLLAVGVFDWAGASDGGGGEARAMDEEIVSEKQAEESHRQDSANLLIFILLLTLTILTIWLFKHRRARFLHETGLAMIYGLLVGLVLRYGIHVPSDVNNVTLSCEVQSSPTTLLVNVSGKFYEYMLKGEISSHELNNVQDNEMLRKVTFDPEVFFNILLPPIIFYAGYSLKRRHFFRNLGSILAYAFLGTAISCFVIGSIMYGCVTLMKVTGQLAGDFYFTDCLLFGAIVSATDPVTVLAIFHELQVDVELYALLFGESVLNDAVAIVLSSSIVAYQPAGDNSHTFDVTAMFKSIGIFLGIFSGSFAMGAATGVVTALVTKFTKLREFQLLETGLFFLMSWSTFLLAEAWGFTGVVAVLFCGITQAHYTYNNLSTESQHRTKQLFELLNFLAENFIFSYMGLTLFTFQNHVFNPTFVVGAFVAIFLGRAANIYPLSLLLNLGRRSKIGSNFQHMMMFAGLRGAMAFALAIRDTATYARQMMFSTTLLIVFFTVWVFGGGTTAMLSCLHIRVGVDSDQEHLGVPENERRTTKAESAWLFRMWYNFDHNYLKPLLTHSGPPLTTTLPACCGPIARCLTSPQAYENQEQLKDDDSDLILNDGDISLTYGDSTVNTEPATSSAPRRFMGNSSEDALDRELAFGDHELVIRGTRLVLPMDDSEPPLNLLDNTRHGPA

Measured: binding

B1: calcium-binding protein CHP1 (protein, UniProt Q99653 1-195)
chain: MGSRASTLLRDEELEEIKKETGFSHSQITRLYSRFTSLDKGENGTLSREDFQRIPELAINPLGDRIINAFFPEGEDQVNFRGFMRTLAHFRPIEDNEKSKDVNGPEPLNSRSNKLHFAFRLYDLDKDEKISRDELLQVLRMMVGVNISDEQLGSIADRTIQEADQDGDSAISFTEFVKVLEKVDVEQKMSIRFLH
binds: SLC9A2 (human) | SLC9A5 (human) | SLC9A6 (human)
